Source: article PMC9355226
These are yes or no findings as the source states them, for the method shown. Some binding calls cover weakened binding; strength is not graded here.

Sequences of proteins named here, by UniProt entry; tags and fusion partners are left off.
UniProt Q96CV9: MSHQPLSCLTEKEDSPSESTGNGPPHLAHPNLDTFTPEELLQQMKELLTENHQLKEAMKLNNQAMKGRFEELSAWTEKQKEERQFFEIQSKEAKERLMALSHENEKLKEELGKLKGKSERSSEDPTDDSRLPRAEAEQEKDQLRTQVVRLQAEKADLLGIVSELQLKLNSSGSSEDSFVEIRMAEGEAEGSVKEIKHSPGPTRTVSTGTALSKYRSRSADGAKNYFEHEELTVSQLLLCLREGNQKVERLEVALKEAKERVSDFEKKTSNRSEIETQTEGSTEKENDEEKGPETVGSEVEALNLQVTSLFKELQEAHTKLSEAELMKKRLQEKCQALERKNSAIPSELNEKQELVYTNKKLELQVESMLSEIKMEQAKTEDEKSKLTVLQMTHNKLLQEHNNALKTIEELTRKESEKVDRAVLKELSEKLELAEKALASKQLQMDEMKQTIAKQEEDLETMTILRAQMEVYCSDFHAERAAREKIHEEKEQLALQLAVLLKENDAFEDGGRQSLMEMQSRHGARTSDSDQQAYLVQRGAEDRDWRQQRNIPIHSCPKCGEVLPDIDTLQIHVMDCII

The substances below were run against CFP-TRIM32 (human) (UniProt Q13049) (assay: sorting of fluorescent cytoplasmic bodies with a cell sorter, then LC-MS/MS; HEK293 cells transfected with CFP-TRIM32, lysed in buffer with 1% Triton X-100 and 150 mM NaCl, sonicated; particles sorted by CFP, FSC and BSC gates (larger than 1.5 um); 10,000 particles solubilised, digested with trypsin, LC-MS/MS; control: naive HEK293 cells; hits with ratio >2 over the control).

binding	Substance
no binding	p62 (from UniProt Q13501 1-440)
no binding	OPTN (from UniProt Q96CV9 1-577)
binds	desmin (from UniProt P17661 1-470)
